# PubChem BioAssay AID1159578 – Peter MacCallum Cancer Centre – 2015
# Assay: 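siRNA pools altering how lymphatic endothelial cells close a scratch wound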 (primary screen)
# Cells: human lymphatic endothelial cells
# Knock-down reagent: siRNA pool against human genes, 40 nM
# Timing: 48 h after transfection
# Measurement: 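Cells stained with dye and imaged after a scratch; covered wound area and nuclei counted, duplicates averaged, migration set against mock wells and turned into a robust z-score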
# Scale: migration robust z-score: higher = faster migration into the scratch; migration relative to mock: higher = more scratch area covered than mock; nuclei per well: higher = more cells in the well
# Rule for the call: 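Migration changed when robust z exceeds 2 or falls below -2 and mean nuclei number is at least 3300; otherwise not called changed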
# Meaning of the calls: active = migration changed; inactive = no migration change, or too few cells
# This is one part, drawn at random, of about 18,000 reagents tested. Of all reagents, about 1,030 (5.7%) were called active. 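Inactive calls also include pools with fewer than 3300 nuclei, whose migration was not assessed.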 Raw values vary from plate to plate and are shown uncorrected. The numbers tell different reagents against one gene apart.
migration robust z-score,migration class with cell-count check,migration relative to mock,"nuclei per well, duplicate mean",Call,Gene,reagent
-3.67,under 3300 nuclei; migration not judged,-0.09,3101,inactive,VWC2,1
-0.87,migration z between -2 and 2; enough cells,0.66,6088,inactive,BBC3,1
1.28,migration z between -2 and 2; enough cells,1.21,5482,inactive,SNTG1,1
0.7,migration z between -2 and 2; enough cells,1.06,7834,inactive,DGCR8,1
-0.73,migration z between -2 and 2; enough cells,0.7,5002,inactive,B9D1,1
1.48,migration z between -2 and 2; enough cells,1.27,5993,inactive,OR6C4,1
0.48,migration z between -2 and 2; enough cells,1.01,6212,inactive,APH1A,1
-0.9,migration z between -2 and 2; enough cells,0.63,4342,inactive,GPR108,1
1.34,migration z between -2 and 2; enough cells,1.06,6579,inactive,ZRANB3,1
0.26,migration z between -2 and 2; enough cells,0.95,5434,inactive,ZGRF1,1
-0.8,migration z between -2 and 2; enough cells,0.68,5690,inactive,ZGRF1,2
1.61,migration z between -2 and 2; enough cells,1.11,5896,inactive,HECW1,1
1.54,migration z between -2 and 2; enough cells,1.29,6284,inactive,LGI2,1
0.22,migration z between -2 and 2; enough cells,0.94,5829,inactive,SFTPB,1
-2.44,under 3300 nuclei; migration not judged,0.34,2464,inactive,SLK,1
1.53,migration z between -2 and 2; enough cells,1.1,6418,inactive,GAS7,1
0.78,migration z between -2 and 2; enough cells,0.96,6124,inactive,B4GALNT4,1
-2.09,under 3300 nuclei; migration not judged,0.34,2714,inactive,POFUT3,1
1.28,migration z between -2 and 2; enough cells,1.22,5108,inactive,H2AB3,1
0.32,migration z between -2 and 2; enough cells,0.86,4316,inactive,CUL9,1
-1.17,migration z between -2 and 2; enough cells,0.58,5278,inactive,BPGM,1
-1.18,migration z between -2 and 2; enough cells,0.58,5834,inactive,SNAP47,1
-0.52,migration z between -2 and 2; enough cells,0.76,3862,inactive,H2AJ,1
